In PubChem BioAssay AID493014 (National Center for Advancing Translational Sciences (NCATS), 2011):
The other results are listed elsewhere or left out. Shown are side measurements of this screen, not its main read-out; they come without a call. Most of these compounds were active or inconclusive in the main read-out, so they are no random draw. The note in brackets gives the kind of curve behind each potency; many fits are weak.

Assay: qHTS Assay to Find Inhibitors of Chronic Active B-Cell Receptor Signaling
Conditions: ABC-DLBCL IkBa-CBG/CBR reporter, luminescence ratio (green luciferase fused to IkBa over red control in TMD8 lymphoma cells), 4 h; measured here: CBR red luminescence, cell number
Procedure, shortened: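 Compounds up to 46 uM were incubated four hours with TMD8 cells whose green CBG68 luciferase is fused to IkappaBalpha; red CBR luminescence normalised the signal, and concentration-effect curves were fitted to fusion, red and ratio data.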

Row | Compound | AC50
1 | COc1cccc(NC(=O)c2ccc3c(c2)CCN3S(C)(=O)=O)c1 | 14.1 µM [falling, single point]
2 | Cc1cccc(N=C2NC(=O)/C(=C\c3cccs3)S2)c1 | 8.2 µM [falling, partial curve]
3 | COc1ccc(NC(=S)NCCCCCC(=O)C[N+](=O)[O-])cc1 | 11.2 µM [falling, partial curve]
4 | O=C(NCc1ccccc1CN1CCCC1)c1cccc(S(=O)(=O)Nc2ccc(F)cc2)c1 | 18.4 µM [falling, single point]
5 | CCOc1ccc(C2C(C(=O)c3ccc(C)o3)=C(O)C(=O)N2c2nc(C)c(C(=O)OC)s2)cc1 (stereo not drawn) | 10 µM [falling, partial curve, poor fit]
6 | CC(=O)NC(CCS(C)(=O)=O)C(=O)Nc1ccc2c(c1)OCCO2 (stereo not drawn) | 29.1 µM [rising, single point]
7 | COc1ccc(NC(=O)c2cc(-c3ccco3)on2)cc1 | 25.1 µM [falling, single point]
8 | O=C(/C=C/c1ccccc1)NCC(=O)N/N=C\c1cccnc1 | 25.9 µM [rising, single point]
9 | CCC1CCCCN1C(=O)c1nn2cccnc2c1Cl (stereo not drawn) | 32.6 µM [rising, single point]
10 | O=C1c2ccccc2NC(c2cccc(O)c2)N1O (stereo not drawn) | 11.2 µM [falling, partial curve, poor fit]
11 | CNC(=O)C(=O)N/N=C/c1cccnc1 | 3.16 µM [falling, partial curve, poor fit]
12 | C#CCn1c(=NC(=O)c2ccc(Cl)s2)sc2cccc(OC)c21 | 8.2 µM [falling, partial curve]
13 | CCC(C(=O)NC1CCCC1)N(Cc1ccco1)C(=O)Cn1nnc(-c2ccc(C)cc2)n1 (stereo not drawn) | 6.51 µM [falling, single point]
14 | C=CCC[C@@H](Cc1ccc(F)cc1)C(=O)OC[C@@H](NC(=O)[C@@H](CC=C)CC(=O)N[C@@H](CO)Cc1ccccc1)C(C)(C)C | 23.1 µM [falling, single point]
15 | Cc1nc2cc(-c3cccc(F)c3)nn2c(C)c1CCC(=O)N1CCN(c2ccccn2)CC1 | 5.62 µM [falling, full curve, poor fit]
16 | O=C(CCn1cccc1)Nc1ccc(F)cc1 | 16.4 µM [rising, partial curve]
17 | O=C(/C=C/c1ccccc1)NCCOc1ccccc1 | 29.1 µM [falling, single point]
18 | CC(=O)N1c2ccc(S(=O)(=O)NCCC(=O)N(C)C3CCCCC3)cc2CC1C (stereo not drawn) | 35.5 µM [rising, single point]

Some of these compounds in order of SMILES length, smallest number first.
Row | Compound | AC50
17 | O=C(/C=C/c1ccccc1)NCCOc1ccccc1 | 29.1 µM [falling, single point]
8 | O=C(/C=C/c1ccccc1)NCC(=O)N/N=C\c1cccnc1 | 25.9 µM [rising, single point]
12 | C#CCn1c(=NC(=O)c2ccc(Cl)s2)sc2cccc(OC)c21 | 8.2 µM [falling, partial curve]
